# Measurements published in patent US11774460B2, “Diagnostic or predictor of relapsing remitting multiple sclerosis” (Dignity Health, priority 2016, dated 2023).
# For at least one compound, name, drawing or mass did not settle the structure.
# Test: Clinical course of multiple sclerosis patients with refractory relapse under treatment
# Assay type: in vivo, human
# Conditions: patients suffering from a refractory relapse or with elevated Factor VIII or Von Willebrand Factor activity; within a few weeks or months of the treatment
smiles,measurement,value
C[C@@H]1C[C@H]2[C@@H]3CCC4=CC(=O)C=C[C@]4(C)[C@@]3(F)[C@@H](O)C[C@]2(C)[C@@]1(O)C(=O)CO [dexamethasone],clinical outcome of patients after treatment,improved
